Test results as given in patent EP1348714B1, “Polypeptide useful as anti-allergic/antiasthmatic, methods for the preparation thereof and pharmaceutical compositions containing such polypeptide and their use” (COUNCIL OF SCIENTIFIC AND INDUSTRIAL RESEARCH, priority 2002, dated 2003).
Part of at least one peptide drawing is inferred or uncertain, most often the ends. Square brackets hold non-standard residues; d marks the D form. Peptide text beside a SMILES is read from it. Sar = CNCC(=O)O

What was measured:
[1] = system: sensitised guinea pig ileum; experiment: antigen (egg albumin) induced contraction of sensitised guinea pig ileum (Schultz-Dale phenomenon)
[2] = system: passive cutaneous anaphylaxis (PCA); experiment: passive cutaneous anaphylaxis (PCA) test in rats; format: in vivo
Egg-albumin = experiment: aerosol test, egg-albumin challenge in sensitised guinea pigs; format: in vivo
[3] = system: Sensitised mast cells (Immunological: Egg albumin); experiment: mast cell degranulation by egg albumin in sensitised mast cells; format: in vivo, rats
Histamine = experiment: aerosol test, histamine challenge; format: in vivo; details: guinea pigs
[4] = system: Normal mast cells (Noninnunological: Comp. 48/80); experiment: mast cell degranulation by comp 48/80 in normal mast cells; format: in vivo, rats
[5] = dose 0.5 pro (0.1 x 5 d) mg/kg x days
[6] = dose 1.0 pro (0.2 x 5 d) mg/kg x days
[7] = dose 2.5 pro (0.5 x 5 d) mg/kg x days
[8] = dose 5.0 pro (1.0 x 5 d) mg/kg x days

Q: Which “% Protection to ileum contraction induced by egg albumin” value (“% Protection … by egg albumin” for short) ([1]; concentration 1.0 (unit not given)) does the source give for `C[C@H](N)C(=O)NCC(=O)NCC(=O)N[C@@H](CC(=O)O)C(=O)N(C)CC(=O)N[C@@H](CCCCN)C(=O)O` [96/199, L-alanyl-glycyl-glycyl-L-aspartyl-sar-L-1ys] (H-AGGD[Sar]K-OH) here?
A: The value was 60%.

Q: And the “% Protection … by egg albumin” value ([1]; concentration 2.0 (unit not given))?
A: Its value is 78%.

Q: And the “% Protection … by egg albumin” value ([1]; concentration 3.0 (unit not given))?
A: The value was 92%.

Q: What about the “% Anti-PCA activity” value ([2]; dose 0.5 mg/kg (PO)) of the same compound?
A: The value was 43%.

Q: And the “% Anti-PCA activity” value ([2]; dose 1.0 mg/kg (PO))?
A: The value was 48%.

Q: What about the “% Anti-PCA activity” value ([2]; dose 2.5 mg/kg (PO)) of the same compound?
A: Its value is 74%.

Q: What about the “% Anti-PCA activity” value ([2]; dose 50.0 mg/kg (PO)) of the same compound?
A: Its value is 82%.

Q: What about the “% Protection Egg-albumin” value (Egg-albumin; dose 2.5 mg/kg (po)) of the same compound?
A: The value was 55%.

Q: And the “% Protection Egg-albumin” value (Egg-albumin; dose 5.0 mg/kg (po))?
A: The value was 61%.

Q: What about the “% Protection” value [3, 5] of the same compound?
A: Its value is 34%.

Q: What about the “% Protection” value [3, 6] of the same compound?
A: The value was 47%.

Q: What about the “% Protection” value [3, 7] of the same compound?
A: Its value is 66%.

Q: What about the “% Protection” value [3, 8] of the same compound?
A: Its value is 72%.

Q: What about the “% Protection Histamine” value (Histamine; dose 2.5 mg/kg (po)) of the same compound?
A: The value was “Nil”.

Q: What about the “% Protection Histamine” value (Histamine; dose 5.0 mg/kg (po)) of the same compound?
A: Its value is 10%.

Q: What about the “% Protection” value [4, 5] of the same compound?
A: Its value is 39%.

Q: And the “% Protection” value [4, 6]?
A: The value was 55%.

Q: What about the “% Protection” value [4, 7] of the same compound?
A: Its value is 77%.

Q: What about the “% Protection” value [4, 8] of the same compound?
A: Its value is 84%.
